Test results from PubChem BioAssay AID1296 (Columbia University Molecular Screening Center, 2008).
Screen size: about 130,000 compounds; about 1,000 (0.77%) were called active. The shares of active, inactive and inconclusive entries below differ from those in the screen.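 Rule for the calls: active = activation at 2 µM above a set limit, confirmed on inspection of the cell images; inconclusive = above the set limit but not confirmed on image inspection; inactive = the rest.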

Assay: activators of insulin promoter-driven GFP, primary screen, imaging, TRM-6 cells, eGFP reporter, cell count (AID 1296);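 note: share of cells whose green reporter signal exceeds an intensity cutoff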
Settings: at 2 µM, stronger effect = higher value, plate-scaled: unstimulated 0, stimulated control 100
Procedure, shortened: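 Test system: human fetal islet-derived TRM-6 cells with tamoxifen-inducible insulin promoter–eGFP reporter. Compound dosing: 2 µM final, single concentration. Incubation: tamoxifen pre-incubation 15 h overnight, then compound exposure 48 h at 37 °C. Signal: fixed-cell fluorescence microscopy, eGFP plus Hoechst.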

Row | SMILES | activation
1 | CC(=O)C1=C(C)NC(SCSc2ccccc2)=C(C#N)C1c1cccnc1 (stereo not drawn) | inconclusive: 500%
2 | CCc1ccc(C2=NN(S(C)(=O)=O)C(c3cccs3)C2)cc1 (stereo not drawn) | inconclusive: 442%
3 | Cc1ccc(OC(=O)c2sc(Cl)nc2C)cc1C | inactive: 6.67%
4 | N#CCCN(Cc1cccnc1)C(=O)Nc1cccc(Cl)c1 | inactive: 8.33%
5 | Cc1nnc(NC(=O)CSc2nnc(Cc3ccccc3)n2-c2ccccc2)s1 | active: 660%
6 | O=[N+]([O-])c1ccc(/C=C/C2=NN(c3ccccc3)C(c3ccco3)C2)cc1 (stereo not drawn) | active: 285% [fluoresces]
7 | Cc1ccc(C)c(-n2nnnc2SCC(=O)NCCC2=CCCCC2)c1 | active: 708%
8 | CN(C)S(=O)(=O)c1ccc(N2CCCC2)c(C(=O)Nc2nc(-c3ccc(F)c(F)c3)cs2)c1 | active: 414%
9 | CCOC(=O)C1=C(N)Oc2ccc3ccccc3c2C1c1cccnc1 (stereo not drawn) | active: 564%
10 | Cc1cc(NC(=O)c2cc(-c3cccnc3)nc3c(C)c(C)ccc23)no1 | inconclusive: 408%
11 | CCOc1ccc(OCC)c(S(=O)(=O)NCc2cccnc2)c1 | inactive: -5.41%
12 | CCCn1c(/N=C/c2ccccc2O)nc2ccccc21 | inconclusive: 78.4%
13 | Cc1ccc(C)c(CSc2nc3[nH]ncc3c(=O)[nH]2)c1 | inconclusive: 222% [cytotoxic]
14 | Cc1nc(C)n(CC(O)COc2ccc(C(=O)c3ccccc3)cc2)n1 (stereo not drawn) | inconclusive: 110%
15 | CC1=CC(C)(C)NC(=O)N1c1ccc(C)cc1 | inconclusive: 175%
16 | CCOc1cc(NC(=O)C2CC2)c(OCC)cc1NC(=O)c1ccccn1 | inactive: 2.78%
17 | Cc1ccc(N(C(=O)Cn2nnc3ccccc32)C(C(=O)NCc2ccco2)c2ccc(C)o2)cc1 (stereo not drawn) | inactive: -7.69%
18 | c1ccc(Nc2nc(N3CCCC3)nc(N3CCCC3)n2)cc1 | inconclusive: 493%
19 | CCOC(=O)C(=O)c1csc(NC(=O)CCSc2ccc(C)cc2)n1 | inactive: -9.09%
20 | O=C(NCCc1ccccn1)C1CC(=O)N(Cc2ccccc2Cl)C1 (stereo not drawn) | active: 131%
21 | CCOC(=O)C1=C(CSc2nc(-c3ccccc3)ccc2C#N)OC(N)=C(C#N)C1c1cccnc1 (stereo not drawn) | inconclusive: 88.6%
22 | Cc1ccc(Nc2nc(N)nc(CN3CCN(Cc4ccc5c(c4)OCO5)CC3)n2)cc1C | inconclusive: 300%
23 | CC(=O)c1cccc(N(CC(=O)Nc2cccnc2)S(C)(=O)=O)c1 | inconclusive: 429%
24 | O=S(=O)(/N=S1/CC=CCN1S(=O)(=O)c1ccccc1)c1ccccc1 (stereo not drawn) | inconclusive: 84.2%

Row | SMILES | activation
25 | O=c1c(-c2ccco2)[n+]([O-])c2ccccc2n1OCc1ccccn1 | inactive: -5.26%
26 | CCN1C(=O)C(O)(C2COC(C)(C)CC2=O)c2cc(Br)ccc21 (stereo not drawn) | inactive: -38%
27 | Cc1cc(NC(=O)Cn2c(=O)n(CCCCC(=O)NC3CCN(Cc4ccccc4)CC3)c(=O)c3ccccc32)n[nH]1 | inactive: -6.67%
28 | O=C(CCSc1ccccc1)N1CCN(C(=O)c2ccco2)CC1 | inactive: 156%
29 | CN(c1ccccc1)S(=O)(=O)c1ccc(C(=O)N2CCc3ccccc3C2)cc1 | inconclusive: 106%
30 | CCOC(=O)COc1ccsc1C(=O)OC | inconclusive: 233%
31 | COc1ccc(C2N(C(=O)c3ccccc3)CCN2C(=O)c2ccccc2)cc1 | inconclusive: 550%
32 | CCC(=O)Nc1cccc(-n2nnnc2SCC(=O)c2ccc(C)c(C)c2)c1 | inactive: 5.41%
33 | CCCCOC(=O)Sc1nc2ccccc2o1 | inactive: 118%
34 | Cc1sc2ncn(CCn3cnc4sc(C)c(C)c4c3=O)c(=O)c2c1C | inconclusive: 438%
35 | Cc1ccnc2ccc(SC(F)(F)F)cc12 | active: 417%
36 | CCc1c(C(=O)N2CCOCC2)csc1C | inactive: 217%
37 | Cc1ccc2nc3c(cc(S(=O)(=O)c4ccccc4)c(=N)n3Cc3ccco3)c(=O)n2c1 | inconclusive: 333%
38 | CC(C)(C)c1ccc(S(=O)(=O)N2CCN(c3ncccn3)CC2)cc1 | active: 267%
39 | O=C1NCCN1Cc1ccc(F)cc1 | inconclusive: 517%
40 | CCN1C(=O)C2(C(C#N)=C(N)Oc3n[nH]c(C(C)C)c32)c2ccccc21 (stereo not drawn) | inconclusive: 78.4%
41 | O=C(Nc1ccc(N2CCOCC2)c(Cl)c1)c1ccc(Br)o1 | inconclusive: 481%
42 | Nc1ccc(C#Cc2ccccc2)cc1 | active: 207%
43 | CC(=O)Nc1nnc(C2=COCCO2)o1 | inconclusive: 154%
44 | CC(C)CC(C(=O)NC(C)(C)C)N(Cc1cccs1)C(=O)c1snc(C(N)=O)c1N (stereo not drawn) | inconclusive: 191%
45 | CCCCCCCN(C(=O)CCl)c1cccc(C)c1 | inconclusive: 270% [cytotoxic]
46 | CCOc1cc(C2C3=C(CCCC3=O)NC3=C2C(=O)CCC3)ccc1OCCO | inconclusive: 528%
47 | C=CCn1c(SCc2ccc3nonc3c2)nnc1-c1cccs1 | inconclusive: 850%
48 | O=C(CSc1nc(-c2ccccc2)cc(=O)[nH]1)N1CCc2ccccc21 | inconclusive: 425%

Row | SMILES | activation
49 | Cc1c(Cl)cccc1NC(=O)NC1CCCCC1 | inconclusive: 466%
50 | Cc1cc(Cl)c(OCCCN2CCCCC2)c(Br)c1 | inactive: 146%
51 | COc1cc2c(C(=O)N3CCN(C)CC3)c(CSc3ccccc3)n(C)c2cc1Br | inconclusive: 112%
52 | CCCCN(C)CCn1c(=S)[nH]c2ccc(N3CCOCC3)cc2c1=O | inactive: 3.12%
53 | COc1cc(C(=O)Oc2cc(C)cc(C)c2)cc(OC)c1OC | active: 607%
54 | O=Cc1cn(CC(=O)N2CCOCC2)c2ccccc12 | active: 411%
55 | COc1ccc(C(=O)CSc2nc3nc(C)cc(C)c3c(=O)[nH]2)cc1OC | inconclusive: 536%
56 | CCOCc1nnc(NC(=O)c2ccco2)s1 | inactive: 144%
57 | CCOC(=O)C(C)On1c(SC(C)C(=O)OCC)nc2ccccc2c1=O (stereo not drawn) | active: 75.7%
58 | O=C(CS(=O)(=O)Cc1ccccc1)Nc1ncccn1 | inconclusive: 354% [cytotoxic]
59 | O=C(Nc1ccc(F)c(F)c1)c1ccco1 | inactive: -7.14%
60 | Cc1cc(-c2[nH]nc3c2C(c2ccsc2)C(C#N)=C(N)O3)c(C)s1 (stereo not drawn) | inconclusive: 420%
61 | C=CCOC(=O)COc1ccc2c(C)c(C)c(=O)oc2c1 | inactive: 0%
62 | CN(C(=O)Cn1c(=O)n(CCCCC(=O)NC2CCCC2)c(=O)c2ccccc21)C1CCCCC1 | inconclusive: 457%
63 | COc1ccc(OC)c(CCNC(=O)CS(=O)(=O)Cc2nc(-c3ccccc3C)oc2C)c1 | inconclusive: 131%
64 | CCNC(=S)Nc1cc(OCC)c(N2CCOCC2)cc1OCC | inactive: -8.11%
65 | Cc1c(C2Nc3ccccc3C(=O)N2O)cnn1C (stereo not drawn) | inconclusive: 720%
66 | O=C(CCN1CCN(c2ccc(F)cc2)CC1)Nc1ccccc1F | inconclusive: 620%
67 | CCNc1c(NC(C)=O)c(=O)oc2ccccc12 | active: 200%
68 | Cc1ccccc1NC(=S)N=Nc1c(O)n(C)c2ccc(S(=O)(=O)N3CCOCC3)cc12 | inconclusive: 272%
69 | O=C(CCl)N(c1ccccc1)C1CCCCC1 | inconclusive: 733% [cytotoxic]
70 | C=CCN1C(=O)NC2(O)C(=O)c3ccccc3C12O (stereo not drawn) | inactive: -7.69%
71 | CCCn1c(=O)n(C)c(=O)c2c(SCC(=O)NCc3ccco3)nc(C3CC3)nc21 | inactive: -2.86%
72 | CCc1c(C)nc(N)n2c(SCC(=O)N3CCCC(C)C3)nnc12 (stereo not drawn) | active: 182%

Row | SMILES | activation
73 | CN(C)c1ccc(/C=N/NC(=O)c2ccc(Cl)cc2)cc1 | inconclusive: 196%
74 | C=CSc1sc(Cl)c(N(C)C)c1[N+](=O)[O-] | inconclusive: 488%
75 | CN(C(=S)Nc1ccc(F)cc1)C1(c2ccccc2Cl)CCCCC1=O (stereo not drawn) | inconclusive: 94.3%
76 | Cc1ccccc1NS(=O)(=O)c1ccc(OCC(=O)NCc2ccco2)cc1 | inconclusive: 426%
77 | O=C(Nc1ccc2c(c1)C(=O)N(c1ccccc1)C2=O)C1CCCO1 (stereo not drawn) | inconclusive: 80.7%
78 | COc1cccc(C(=O)Nc2cc(NC(=O)c3ccco3)ccc2OC)c1 | inconclusive: 640%
79 | Cc1nc([N+](=O)[O-])cn1CC(=O)NCCCO | inconclusive: 212% [cytotoxic]
80 | COc1cccc(NC(=O)Cn2cnc3sc(C)c(S(=O)(=O)N4CCCCC4)c3c2=O)c1 | inconclusive: 414%
81 | CCNc1nc(NC(C)C)nc(N(C#N)C(C)C(=O)N(C)C)n1 (stereo not drawn) | inconclusive: 406%
82 | COc1ccc(-c2nc(NC(=O)C3CC(=O)N(c4ccc5c(c4)OCCO5)C3)sc2C)cc1 (stereo not drawn) | inactive: 3.23%
83 | COc1ccc(CCN2CC(O)=C(c3nc(C)cs3)C2=N)cc1OC | inconclusive: 100%
84 | CCN(CC(=O)NC1CCS(=O)(=O)C1)C(=O)/C=C/c1cccs1 (stereo not drawn) | inactive: 117%
85 | CCc1nnc(NC(=O)C2Cc3ccccc3CN2S(=O)(=O)c2ccc(C)cc2)s1 (stereo not drawn) | inconclusive: 103%
86 | COc1ccccc1NC(=O)C(C)NS(=O)(=O)c1ccccc1 (stereo not drawn) | inconclusive: 554%
87 | CCOC(=O)c1c(C)nc2sc3c(c2c1-c1ccc(OC)cc1)NC(c1ccc(OC)cc1)NC3=O (stereo not drawn) | inconclusive: 163%
88 | Cc1ccc(/C=C(\C#N)C(=O)Nc2cccc3ncccc23)o1 | inactive: 2.7%
89 | CCc1nnc(NC(=O)CSc2nnc(C)n2-c2ccc(C)cc2)s1 | inactive: 364%
90 | CC(C)c1ccccc1NS(=O)(=O)N(C)C | active: 380%
91 | COC(=O)c1ccccc1NC(=O)c1ccc(COc2ccccc2)o1 | active: 585%
92 | O=C(O)CCCCCNC(=O)CCn1cnc2ccccc2c1=O | inconclusive: 123%
93 | COC(=O)/C=C1/N/C(=N\c2nc(C)cc(C)n2)N(c2ccccc2)C1=O | inactive: 7.14%

Structural class, the compounds so far containing fluorine (6)
Row | SMILES | activation
8 | CN(C)S(=O)(=O)c1ccc(N2CCCC2)c(C(=O)Nc2nc(-c3ccc(F)c(F)c3)cs2)c1 | active: 414%
35 | Cc1ccnc2ccc(SC(F)(F)F)cc12 | active: 417%
39 | O=C1NCCN1Cc1ccc(F)cc1 | inconclusive: 517%
59 | O=C(Nc1ccc(F)c(F)c1)c1ccco1 | inactive: -7.14%
66 | O=C(CCN1CCN(c2ccc(F)cc2)CC1)Nc1ccccc1F | inconclusive: 620%
75 | CN(C(=S)Nc1ccc(F)cc1)C1(c2ccccc2Cl)CCCCC1=O (stereo not drawn) | inconclusive: 94.3%
